Source: US6344471B1 (priority 1998, dated 2002)
pIC50: −log10 of the molar value. At least one structure is not confirmed: it was looked up by name or label, or the drawing left a doubt.

Columns and labels:
[1] = biological target: high-affinity DFP binding site; set-up: species or system rat; conditions: read-out: IC50, displacement of DFP from the high-affinity DFP binding site
[2] = tested on: young adult rats; conditions: rat, in vivo; cited from earlier work

Structure (SMILES): CNC(=O)Oc1ccc2c(c1)[C@]1(C)CCN(C)[C@@H]1N2C [Physiostigmine, physostigmine]
- pIC50 [1]: < 3.00
- improvement of cognitive learning ability [2]: no improvement
